From the supplement of paper PMC10849652
Some of the results follow.

By UniProt entry, the sequences of proteins in these tests, tags left out. Where a name states a change or a piece, a line headed by the entry shows the natural chain unless it says otherwise.
UniProt Q13268: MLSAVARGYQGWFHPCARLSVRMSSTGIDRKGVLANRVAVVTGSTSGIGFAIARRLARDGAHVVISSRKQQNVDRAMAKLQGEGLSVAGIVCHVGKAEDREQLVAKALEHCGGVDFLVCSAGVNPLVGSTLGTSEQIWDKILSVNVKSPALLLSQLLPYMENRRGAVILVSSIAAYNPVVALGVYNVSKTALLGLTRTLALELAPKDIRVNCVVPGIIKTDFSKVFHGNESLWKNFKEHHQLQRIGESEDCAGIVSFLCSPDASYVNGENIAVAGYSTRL
UniProt Q96M86: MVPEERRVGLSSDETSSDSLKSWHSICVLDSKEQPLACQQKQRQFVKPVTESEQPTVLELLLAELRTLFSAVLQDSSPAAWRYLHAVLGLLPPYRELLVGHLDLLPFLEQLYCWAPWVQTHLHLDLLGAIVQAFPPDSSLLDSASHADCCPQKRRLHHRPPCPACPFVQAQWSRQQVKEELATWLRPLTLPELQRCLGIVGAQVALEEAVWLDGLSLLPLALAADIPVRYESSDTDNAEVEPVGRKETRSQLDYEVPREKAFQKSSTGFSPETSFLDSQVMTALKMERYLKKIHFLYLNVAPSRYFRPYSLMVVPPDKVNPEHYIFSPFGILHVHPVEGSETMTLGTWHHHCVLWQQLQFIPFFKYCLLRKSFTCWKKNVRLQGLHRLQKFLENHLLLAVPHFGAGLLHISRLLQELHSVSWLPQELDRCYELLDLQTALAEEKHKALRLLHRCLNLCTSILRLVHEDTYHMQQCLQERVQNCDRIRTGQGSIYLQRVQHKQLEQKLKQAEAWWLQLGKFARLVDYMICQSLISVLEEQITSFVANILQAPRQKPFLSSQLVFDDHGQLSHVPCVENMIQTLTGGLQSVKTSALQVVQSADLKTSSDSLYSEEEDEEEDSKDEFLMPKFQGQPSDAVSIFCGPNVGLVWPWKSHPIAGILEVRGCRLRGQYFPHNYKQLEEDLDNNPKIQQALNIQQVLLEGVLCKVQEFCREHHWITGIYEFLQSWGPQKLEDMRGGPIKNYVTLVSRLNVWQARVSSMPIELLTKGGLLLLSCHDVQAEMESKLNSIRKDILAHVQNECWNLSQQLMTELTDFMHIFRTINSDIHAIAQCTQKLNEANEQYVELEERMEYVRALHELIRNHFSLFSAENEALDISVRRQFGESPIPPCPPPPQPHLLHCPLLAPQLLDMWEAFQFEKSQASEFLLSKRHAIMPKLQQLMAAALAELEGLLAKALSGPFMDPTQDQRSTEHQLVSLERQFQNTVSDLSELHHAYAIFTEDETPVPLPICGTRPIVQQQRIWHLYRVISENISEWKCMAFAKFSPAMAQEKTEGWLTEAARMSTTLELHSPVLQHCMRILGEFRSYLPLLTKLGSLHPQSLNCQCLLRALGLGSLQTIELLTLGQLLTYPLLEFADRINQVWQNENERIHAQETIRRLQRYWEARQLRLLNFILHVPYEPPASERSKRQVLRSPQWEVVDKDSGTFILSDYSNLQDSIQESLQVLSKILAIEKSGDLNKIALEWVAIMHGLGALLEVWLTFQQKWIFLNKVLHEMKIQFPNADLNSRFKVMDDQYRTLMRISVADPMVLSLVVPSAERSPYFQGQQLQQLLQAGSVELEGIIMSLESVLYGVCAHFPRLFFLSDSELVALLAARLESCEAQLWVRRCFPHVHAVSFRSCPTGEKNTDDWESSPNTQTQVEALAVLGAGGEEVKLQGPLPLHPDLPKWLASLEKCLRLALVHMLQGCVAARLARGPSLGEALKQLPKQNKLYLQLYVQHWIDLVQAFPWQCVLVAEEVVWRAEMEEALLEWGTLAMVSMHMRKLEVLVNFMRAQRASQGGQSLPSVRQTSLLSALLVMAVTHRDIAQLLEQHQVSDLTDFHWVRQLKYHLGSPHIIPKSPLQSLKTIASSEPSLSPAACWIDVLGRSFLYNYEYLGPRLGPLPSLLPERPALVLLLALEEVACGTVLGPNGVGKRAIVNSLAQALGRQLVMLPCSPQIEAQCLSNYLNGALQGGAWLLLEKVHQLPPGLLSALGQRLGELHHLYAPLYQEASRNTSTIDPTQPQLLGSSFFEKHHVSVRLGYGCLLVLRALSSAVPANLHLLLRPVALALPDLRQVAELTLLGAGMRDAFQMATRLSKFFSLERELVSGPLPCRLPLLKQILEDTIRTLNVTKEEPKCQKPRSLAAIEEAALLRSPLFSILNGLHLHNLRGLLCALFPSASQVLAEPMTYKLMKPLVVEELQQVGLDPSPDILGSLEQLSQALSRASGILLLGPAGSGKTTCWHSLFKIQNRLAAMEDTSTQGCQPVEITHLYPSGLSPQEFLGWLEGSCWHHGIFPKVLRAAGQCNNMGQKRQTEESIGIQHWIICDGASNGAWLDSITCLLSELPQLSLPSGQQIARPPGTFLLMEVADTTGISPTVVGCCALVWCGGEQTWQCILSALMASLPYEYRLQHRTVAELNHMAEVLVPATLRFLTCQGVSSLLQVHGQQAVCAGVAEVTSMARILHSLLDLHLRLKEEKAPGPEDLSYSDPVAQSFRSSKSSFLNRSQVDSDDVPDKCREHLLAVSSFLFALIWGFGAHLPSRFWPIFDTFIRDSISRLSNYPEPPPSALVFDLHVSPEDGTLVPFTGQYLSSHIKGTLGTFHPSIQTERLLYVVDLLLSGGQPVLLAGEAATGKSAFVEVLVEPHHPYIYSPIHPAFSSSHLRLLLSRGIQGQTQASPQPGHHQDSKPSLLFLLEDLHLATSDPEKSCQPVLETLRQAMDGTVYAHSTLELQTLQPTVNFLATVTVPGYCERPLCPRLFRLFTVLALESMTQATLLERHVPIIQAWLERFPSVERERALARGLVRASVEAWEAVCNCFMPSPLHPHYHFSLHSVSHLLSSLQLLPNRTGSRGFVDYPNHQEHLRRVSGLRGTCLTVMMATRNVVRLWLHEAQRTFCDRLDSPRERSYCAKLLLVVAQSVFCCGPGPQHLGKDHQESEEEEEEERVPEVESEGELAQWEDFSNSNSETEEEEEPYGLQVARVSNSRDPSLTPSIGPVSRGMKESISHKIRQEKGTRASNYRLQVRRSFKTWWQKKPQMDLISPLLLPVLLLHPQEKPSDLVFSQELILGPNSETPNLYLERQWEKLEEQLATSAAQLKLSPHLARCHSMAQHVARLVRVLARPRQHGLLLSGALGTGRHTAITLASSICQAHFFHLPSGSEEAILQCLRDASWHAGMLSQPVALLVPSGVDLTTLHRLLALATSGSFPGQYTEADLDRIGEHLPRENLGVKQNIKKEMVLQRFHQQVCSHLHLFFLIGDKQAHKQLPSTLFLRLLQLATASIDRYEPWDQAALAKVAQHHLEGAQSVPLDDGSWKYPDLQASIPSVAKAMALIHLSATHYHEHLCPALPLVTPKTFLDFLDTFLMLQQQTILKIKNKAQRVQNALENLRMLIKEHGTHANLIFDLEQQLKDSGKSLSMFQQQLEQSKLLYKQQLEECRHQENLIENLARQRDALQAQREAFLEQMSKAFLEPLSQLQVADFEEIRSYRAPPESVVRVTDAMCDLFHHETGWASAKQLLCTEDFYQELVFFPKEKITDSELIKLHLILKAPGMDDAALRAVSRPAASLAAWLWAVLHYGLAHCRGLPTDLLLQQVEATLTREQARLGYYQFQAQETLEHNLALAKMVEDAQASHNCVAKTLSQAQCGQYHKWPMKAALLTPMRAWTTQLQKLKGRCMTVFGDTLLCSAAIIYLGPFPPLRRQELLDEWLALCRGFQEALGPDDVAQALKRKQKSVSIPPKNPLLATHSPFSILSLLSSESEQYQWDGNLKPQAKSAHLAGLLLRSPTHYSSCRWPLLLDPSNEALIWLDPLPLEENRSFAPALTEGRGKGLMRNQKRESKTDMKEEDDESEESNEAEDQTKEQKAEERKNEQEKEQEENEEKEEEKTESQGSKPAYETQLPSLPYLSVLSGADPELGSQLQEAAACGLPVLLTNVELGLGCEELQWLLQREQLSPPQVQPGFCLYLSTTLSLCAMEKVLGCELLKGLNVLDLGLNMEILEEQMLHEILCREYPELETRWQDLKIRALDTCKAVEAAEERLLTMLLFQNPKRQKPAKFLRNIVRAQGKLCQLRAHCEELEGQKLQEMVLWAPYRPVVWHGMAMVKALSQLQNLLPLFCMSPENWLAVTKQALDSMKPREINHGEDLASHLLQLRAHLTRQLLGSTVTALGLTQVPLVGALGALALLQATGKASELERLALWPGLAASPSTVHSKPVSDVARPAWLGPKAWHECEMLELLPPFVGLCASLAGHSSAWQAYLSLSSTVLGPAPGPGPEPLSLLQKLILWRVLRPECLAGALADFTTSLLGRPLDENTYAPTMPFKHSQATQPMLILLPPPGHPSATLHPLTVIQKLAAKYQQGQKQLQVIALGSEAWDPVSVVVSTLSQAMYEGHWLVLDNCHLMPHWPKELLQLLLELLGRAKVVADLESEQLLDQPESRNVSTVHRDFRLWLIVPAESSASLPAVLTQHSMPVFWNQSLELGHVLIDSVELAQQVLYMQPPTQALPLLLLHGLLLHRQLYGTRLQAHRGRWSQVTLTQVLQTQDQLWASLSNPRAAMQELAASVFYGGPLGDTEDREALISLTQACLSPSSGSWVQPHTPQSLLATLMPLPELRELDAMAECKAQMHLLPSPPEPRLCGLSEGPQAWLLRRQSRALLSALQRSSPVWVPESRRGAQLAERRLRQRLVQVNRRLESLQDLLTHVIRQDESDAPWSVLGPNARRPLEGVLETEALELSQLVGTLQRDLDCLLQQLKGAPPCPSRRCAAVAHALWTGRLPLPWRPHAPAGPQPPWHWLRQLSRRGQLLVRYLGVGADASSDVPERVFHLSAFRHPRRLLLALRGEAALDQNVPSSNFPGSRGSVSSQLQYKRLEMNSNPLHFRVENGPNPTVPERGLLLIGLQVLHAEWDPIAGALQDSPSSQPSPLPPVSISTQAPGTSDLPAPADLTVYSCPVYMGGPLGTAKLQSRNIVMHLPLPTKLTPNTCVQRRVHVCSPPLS
UniProt Q6P3W2: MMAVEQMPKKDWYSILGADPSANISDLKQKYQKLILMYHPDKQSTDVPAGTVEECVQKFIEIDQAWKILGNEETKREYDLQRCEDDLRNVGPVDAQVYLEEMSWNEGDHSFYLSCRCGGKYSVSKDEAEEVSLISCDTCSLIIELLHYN
UniProt Q9UBS4: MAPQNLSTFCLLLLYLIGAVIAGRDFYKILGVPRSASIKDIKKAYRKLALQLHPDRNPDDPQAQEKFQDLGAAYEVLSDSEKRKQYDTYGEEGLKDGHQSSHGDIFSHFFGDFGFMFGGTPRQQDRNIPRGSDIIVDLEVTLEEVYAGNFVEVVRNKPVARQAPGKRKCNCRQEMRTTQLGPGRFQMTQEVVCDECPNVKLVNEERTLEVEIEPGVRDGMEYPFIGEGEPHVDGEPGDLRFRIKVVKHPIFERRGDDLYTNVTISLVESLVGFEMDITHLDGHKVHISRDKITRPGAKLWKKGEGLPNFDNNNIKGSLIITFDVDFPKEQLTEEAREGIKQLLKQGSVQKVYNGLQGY
UniProt Q86Y56: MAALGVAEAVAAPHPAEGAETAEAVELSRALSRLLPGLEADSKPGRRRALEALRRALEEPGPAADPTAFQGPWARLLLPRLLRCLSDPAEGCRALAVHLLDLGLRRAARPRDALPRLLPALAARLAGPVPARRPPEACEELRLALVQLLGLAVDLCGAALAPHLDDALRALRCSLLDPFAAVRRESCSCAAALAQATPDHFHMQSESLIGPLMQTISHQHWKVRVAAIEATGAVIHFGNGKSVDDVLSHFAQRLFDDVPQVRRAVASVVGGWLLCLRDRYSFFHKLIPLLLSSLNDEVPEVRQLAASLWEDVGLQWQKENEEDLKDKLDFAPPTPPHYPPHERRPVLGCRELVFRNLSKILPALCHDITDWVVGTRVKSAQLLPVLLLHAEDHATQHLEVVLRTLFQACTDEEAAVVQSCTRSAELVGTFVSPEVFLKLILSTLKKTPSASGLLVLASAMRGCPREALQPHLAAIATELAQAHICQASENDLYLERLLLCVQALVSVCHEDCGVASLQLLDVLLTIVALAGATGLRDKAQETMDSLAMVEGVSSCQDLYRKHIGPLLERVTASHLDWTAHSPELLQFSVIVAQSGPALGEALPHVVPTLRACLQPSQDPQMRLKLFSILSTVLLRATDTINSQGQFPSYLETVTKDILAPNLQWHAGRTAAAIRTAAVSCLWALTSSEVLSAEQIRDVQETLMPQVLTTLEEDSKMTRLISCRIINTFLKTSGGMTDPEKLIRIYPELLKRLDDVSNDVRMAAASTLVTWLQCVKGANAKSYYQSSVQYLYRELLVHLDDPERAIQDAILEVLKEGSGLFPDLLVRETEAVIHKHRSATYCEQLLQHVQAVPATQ

Assays:
Assay in all cases: log2 fold change, soluble protein after heating vs DMSO (PISA); higher = thermal stabilisation; K562 lysate, 10 uM; active = over 0.2 and 3.5 SD of the protein, either way, in both replicates (recomputed)
[1] = compound: NCC(=O)Nc1ccc(-n2nc(C(F)(F)F)cc2-c2ccc3c(ccc4ccccc43)c2)cc1
Outline: (§1)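 Thermal stability, expressed as log-two fold change relative to solvent controls, is given from duplicates. Crude K562 extract in PBS pH 7.4 with 1 mM MgCl2, at 1 mg/mL protein, was treated with 10 μM compound for 30 min and heated in aliquots for 3 min across 48°C-58°C. After pooling, adjustment to 0.5% NP-40 at 4°C and centrifugation at 21,000xg for 90 min, supernatant protein was measured by TMTpro 16plex LC-MS/MS with channel sums equalised.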

vorinostat = compound: O=C(CCCCCCC(=O)Nc1ccccc1)NO [vorinostat]
Outline: as §1

silmitasertib = compound: O=C(O)c1ccc2c(c1)nc(Nc1cccc(Cl)c1)c1ccncc12 [silmitasertib]
Outline: as §1

[2] = compound: O=C1NC(=O)C(c2cnc3ccccn23)=C1c1cn2c3c(cc(F)cc13)CN(C(=O)N1CCCCC1)CC2
Outline: as §1

entospletinib = compound: c1cn2cc(-c3ccc4cn[nH]c4c3)nc(Nc3ccc(N4CCOCC4)cc3)c2n1 [entospletinib]
Outline: as §1

Target | log2 fold change [1] | log2 fold change (vorinostat) | log2 fold change (silmitasertib) | log2 fold change [2] | log2 fold change (entospletinib)
DMD (UniProt P11532) | inactive: -0.025 | inactive: 0.014 | inactive: -0.017 | inactive: 0.002 | inactive: -0.003
DNAAF2 (UniProt Q9NVR5) | inactive: 0.071 | inactive: 0.005 | inactive: 0.045 | inactive: -0.005 | inactive: -0.029
DNAH5 (UniProt Q8TE73) | inactive: 0.008 | inactive: 0.113 | inactive: -0.179 | – | –
DHRS2 (UniProt Q13268) | inactive: -0.014 | inactive: 0.079 | inactive: 0.002 | inactive: 0.004 | inactive: 0.025
DNMBP (UniProt Q6XZF7) | inactive: 0.062 | inactive: 0.021 | inactive: -0.014 | inactive: 0.087 | inactive: -0.052
DNTTIP2 (UniProt Q5QJE6) | inactive: 0.093 | inactive: 0.031 | inactive: -0.051 | inactive: 0 | inactive: 0.016
DNHD1 (UniProt Q96M86) | inactive: 0.232 | inactive: 0.038 | inactive: -0.009 | inactive: -0.065 | –
DNAJC24 (UniProt Q6P3W2) | inactive: -0.159 | inactive: 0.053 | inactive: -0.017 | inactive: -0.014 | inactive: -0.046
DNAJB11 (UniProt Q9UBS4) | inactive: 0.046 | inactive: 0.075 | inactive: -0.016 | inactive: -0.004 | inactive: 0.002
DNAAF5 (UniProt Q86Y56) | inactive: 0.029 | active: -0.313 | inactive: 0.129 | inactive: 0.02 | inactive: -0.012
